# Test results from the supplement of paper PMC3334620.
# In all, about 33,000 sequences were measured (“E-score (-0.5 to 0.5)”: median about -0.015, highest 2% from about 0.3 on). This is one part of the list.
# Target: T1, Abf1 (UniProt P14164)
# T1 sequence: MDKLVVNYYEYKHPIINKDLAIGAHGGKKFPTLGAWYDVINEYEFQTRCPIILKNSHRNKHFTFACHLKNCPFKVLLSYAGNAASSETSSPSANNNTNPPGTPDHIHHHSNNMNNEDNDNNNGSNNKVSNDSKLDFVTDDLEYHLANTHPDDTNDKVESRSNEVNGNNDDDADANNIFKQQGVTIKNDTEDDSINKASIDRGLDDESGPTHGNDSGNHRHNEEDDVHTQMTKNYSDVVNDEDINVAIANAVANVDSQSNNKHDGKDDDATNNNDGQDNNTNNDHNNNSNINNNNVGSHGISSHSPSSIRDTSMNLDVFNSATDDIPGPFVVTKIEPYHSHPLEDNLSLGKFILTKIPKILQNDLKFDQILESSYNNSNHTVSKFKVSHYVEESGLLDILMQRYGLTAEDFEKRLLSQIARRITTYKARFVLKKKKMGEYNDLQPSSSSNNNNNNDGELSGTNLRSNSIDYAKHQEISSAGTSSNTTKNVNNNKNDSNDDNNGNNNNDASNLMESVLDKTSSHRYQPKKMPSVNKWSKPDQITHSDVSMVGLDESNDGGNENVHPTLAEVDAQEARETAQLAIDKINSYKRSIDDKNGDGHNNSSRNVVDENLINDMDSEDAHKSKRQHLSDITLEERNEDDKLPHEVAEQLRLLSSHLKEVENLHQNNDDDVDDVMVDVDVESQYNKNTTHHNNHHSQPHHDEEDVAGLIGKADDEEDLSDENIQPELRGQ
# Assay: PBM E-score (8-mer binding enrichment) (E-score (-0.5 to 0.5)); higher = stronger / more preferred TF binding
# Settings: protein concentration: 200 nM; construct: GST-full length
# How it was run: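 Detection of bound protein used fluorescent anti-GST, with scans normalised by masliner. The proteins were GST-tagged yeast transcription factors applied at about 100-200 nM to universal all-10-mer Agilent arrays made double-stranded by primer extension. Each ungapped eight-base word, pooled with its reverse complement, was scored with an E-score from the Universal PBM Analysis Suite.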
row,Sequence,PBM E-score
1,AAGGACTC,-0.0574
2,GCAATTAA,0.055
3,AAGGAGAG,-0.184
4,CTATACTA,0.0524
5,AGACCAAA,-0.0337
6,CAAACATA,-0.24
7,ATGTTCGG,-0.0954
8,ACGTGATC,0.261
9,CTACAAAC,0.0458
10,GACCCCCA,-0.406
11,CCTCAACG,-0.067
12,ATCATTCC,0.25
13,CTTCGTAC,0.414
14,ACCTAACT,0.139
15,AGGTGAAC,-0.158
16,GATGTGGA,0.127
17,GAATCCGA,0.0367
18,AACTTTTG,-0.0828
19,GGCTATAC,-0.0369
20,CAGCATTA,0.147
21,AAGCACAA,0.0452
22,CTAGCCAG,-0.011
23,AATCTCGC,0.136
24,CAAGGAAA,-0.198
25,GGTGAAGA,0.0145

row,Sequence,PBM E-score
1,ACTAGCGG,-0.244
2,ATCGGACG,0.0252
3,ATGCTCCC,0.00623
4,GTTTTCCA,-0.0188
5,TAGAGTCA,-0.225
6,GACGAGAC,0.233
7,CGCTCTAA,0.108
8,AATGTCAT,0.306
9,AAAAGACT,-0.162
10,TATGTTAA,0.0944
11,GGCCCTGA,-0.15
12,CGCGACTA,0.134
13,CAGCCGGG,-0.16
14,GTGACGGA,0.149
15,ATACAGCA,0.0274
16,TACTTGGA,0.136
17,CATATATG,-0.107
18,CGCAGGAC,-0.0446
19,CAAACTCA,0.0162
20,ACCGTCAG,0.0392
21,CGCCAATC,-0.235
22,TAGGCTGA,-0.141
23,TAGGGCCA,-0.224
24,AAAAGTTG,0.0813
25,ATTAGTTC,0.0653

row,Sequence,PBM E-score
1,ACCTTTCC,0.106
2,CCCACTCG,-0.0264
3,CGAGGGGC,-0.102
4,AGCGGGCC,-0.0217
5,CGCCCTCC,-0.307
6,GCCAGGGC,-0.238
7,AAGGACTA,-0.187
8,CTCTGCCC,-0.12
9,TACGGTGA,0.267
10,CACCAGGA,-0.184
11,CTCAGCAG,-0.185
12,CGTTCACA,0.151
13,CCGAACAA,-0.0373
14,AAGGTTGA,0.0275
15,AATCTAGT,0.0821
16,AGGGGGAA,-0.373
17,TCAGAAAA,-0.087
18,AAGGTCAC,0.187
19,CCTGCTGA,0.0985
20,CCCCTCTA,-0.244
21,AACTACAG,-0.197
22,GAGCAAGC,-0.0234
23,ACTTCTTC,0.109
24,GACCCTAA,0.012
25,GAGTTTAA,-0.0806

row,Sequence,PBM E-score
1,CGTATTAC,0.17
2,CGCTTGAC,-0.0445
3,CGGATGAC,0.0966
4,CTCTGAAC,-0.209
5,ATTCAGGG,-0.117
6,CGCATTGA,-0.116
7,CCCAGTCG,-0.168
8,AAACGTAC,0.175
9,ATGCTACG,0.0618
10,TCTCGTAA,0.306
11,GTATTCAC,0.101
12,CCGTGCTA,0.124
13,ACTCAGCC,-0.0628
14,ATACGTAG,0.216
15,GTTCTGCA,0.0226
16,AATTTCTG,-0.0905
17,AAATTTAA,0.104
18,GAGCATAA,0.0686
19,CAAGCGCA,0.2
20,CTTCTGAC,-0.0739
21,ACGAGCTG,-0.0108
22,CCATAGGC,-0.255
23,TGCTCCAA,-0.0406
24,ATCACAGG,-0.0296
25,ACATGAAC,-0.0565

row,Sequence,PBM E-score
1,TAAAGACA,-0.183
2,CCACCAAC,0.0464
3,CAGGCTGA,-0.188
4,GAATGCTC,-0.0235
5,CGCCTCTC,-0.306
6,ATGACAAT,0.344
7,CTCATAAC,-0.0385
8,ATGAATGC,-0.115
9,TCGCTACA,-0.0917
10,ACCGGCGT,-0.0929
11,CGCAAAAC,-0.0968
12,ACTGCACT,-0.0247
13,ACGCCTTC,-0.234
14,AGACCTCT,-0.235
15,ATAGGTAA,0.0844
16,CACGAATG,0.18
17,CTTGAGAC,-0.114
18,CATGACCG,0.0551
19,AGTTAATA,0.154
20,AGACAGCT,-0.191
21,CGAATCGC,-0.105
22,AGGGTGAT,0.335
23,CTCACCGC,0.0255
24,GCACCCGC,-0.155
25,TCCTTCCA,-0.07

row,Sequence,PBM E-score
1,CATTATTC,0.0906
2,ATCCTGCG,-0.0659
3,ATAGGTCG,0.0721
4,ACACAAGG,-0.135
5,GGGAAGAA,-0.136
6,ACTGCACA,-0.0157
7,CATCGTCG,0.231
8,ATGCCCAT,-0.205
9,CTTTGAGC,-0.128
10,AGTCGCCA,-0.21
11,CTCTTAAG,-0.0657
12,ATCCCCGG,-0.21
13,CGAAGACC,-0.0723
14,AAGTGCCC,-0.141
15,CTATGGGA,-0.0561
16,GACGATCC,0.179
17,ACGCGGCG,-0.0292
18,ACCTTTCA,0.0936
19,TGACGTCA,0.314
20,AAACCATG,-0.0371
21,GTCCTAGA,0.188
22,CTGCTGAC,-0.0193
23,CTAATCTA,-0.0706
24,GAACACGC,-0.0987
25,AGAACAGC,-0.0106

row,Sequence,PBM E-score
1,ATCATAGC,0.152
2,GAACTACC,-0.19
3,CTGATTGC,-0.12
4,GATACAGC,-0.195
5,ACGCTCAC,0.157
6,GTCAGATA,-0.052
7,CTCGGAGA,-0.027
8,ATATCTAA,0.131
9,AAATCGGG,0.0447
10,TCTTAAGA,0.165
11,ATATTGTC,0.172
12,GCCCAACC,-0.09
13,CAGACACG,-0.0904
14,CTCCAATC,-0.0529
15,ATGCTAAG,-0.119
16,AACGTGTG,0.0261
17,AAGAGCCT,-0.216
18,AGTAGCAT,-0.0673
19,AAACTTGA,-0.168
20,ACGCACTC,-0.113
21,AGTTGCAA,-0.093
22,AAGACTCA,-0.212

# A second format for part of the listing above:
row | Sequence | PBM E-score
6 | ACTGCACA | -0.0157
7 | CATCGTCG | 0.231
9 | CTTTGAGC | -0.128
10 | AGTCGCCA | -0.21
11 | CTCTTAAG | -0.0657
12 | ATCCCCGG | -0.21
13 | CGAAGACC | -0.0723
14 | AAGTGCCC | -0.141
16 | GACGATCC | 0.179
17 | ACGCGGCG | -0.0292
18 | ACCTTTCA | 0.0936
19 | TGACGTCA | 0.314
20 | AAACCATG | -0.0371
21 | GTCCTAGA | 0.188
22 | CTGCTGAC | -0.0193
23 | CTAATCTA | -0.0706
24 | GAACACGC | -0.0987
25 | AGAACAGC | -0.0106
1 | ATCATAGC | 0.152
3 | CTGATTGC | -0.12
4 | GATACAGC | -0.195
5 | ACGCTCAC | 0.157
6 | GTCAGATA | -0.052
7 | CTCGGAGA | -0.027
8 | ATATCTAA | 0.131
9 | AAATCGGG | 0.0447
10 | TCTTAAGA | 0.165
11 | ATATTGTC | 0.172
12 | GCCCAACC | -0.09
13 | CAGACACG | -0.0904
14 | CTCCAATC | -0.0529
15 | ATGCTAAG | -0.119
16 | AACGTGTG | 0.0261
17 | AAGAGCCT | -0.216
18 | AGTAGCAT | -0.0673
19 | AAACTTGA | -0.168
20 | ACGCACTC | -0.113
21 | AGTTGCAA | -0.093
22 | AAGACTCA | -0.212
